In article PMC5996148 one finds binding signal data, which are given here for 1 sequence.

The other results are listed elsewhere or left out.

Test systems include ALOX15B (human); ALOX5 (human); ALOX5AP (human); ALS2 (human); ALS2CL (human); AMBP (human); AMDHD1 (human); AMELX (human); AMPD2 (human); ANGPTL2 (human).
Assay in all cases: protein microarray (ProtoArray v5.0), streptavidin-Alexa Fluor 647
Common to all, as to details: 3'-biotin; 20 mM Tris (pH 7.5), 5 mM MgCl2, 100 mM KCl, 0.1% Tween-20, A/T-rich and random oligonucleotide blockers; temperature not stated; high values mean tight binding

As for “GGGAGGCTGAGGCAGG [G4-1 biotinylated (PQS2)]”, the binding signal in the assay with ALOX15B (human) is -0.357 z-score; in the assay on ALOX5 (human) it was -0.365 z-score; in the assay on ALOX5AP (human) it was -0.331 z-score; in the assay with ALS2 (human) it was -0.33 z-score; with ALS2CL (human), -0.307 z-score; with AMBP (human) it was -0.313 z-score. Moreover, the binding signal is -0.347 z-score in the assay with AMDHD1 (human), -0.35 z-score with AMELX (human), -0.323 z-score in the assay on AMPD2 (human) and -0.302 z-score with ANGPTL2 (human).
